According to article PMC11027413:
Where two headings read alike, the source gives them in different places. No constants are given. Whether binding was seen depends on the method and setting. In cells and extracts the contact can be indirect. Some binding calls cover weakened binding; strength is not graded here. For some assays here: Tags and fused reporters may be left off the sequences shown. One block for each molecule: values may come before it.

Chains of the proteins cited; added tags and fusions are not shown. Lines headed by an entry give the natural chain unless they say otherwise; changes in a name come on top.
UniProt P50750: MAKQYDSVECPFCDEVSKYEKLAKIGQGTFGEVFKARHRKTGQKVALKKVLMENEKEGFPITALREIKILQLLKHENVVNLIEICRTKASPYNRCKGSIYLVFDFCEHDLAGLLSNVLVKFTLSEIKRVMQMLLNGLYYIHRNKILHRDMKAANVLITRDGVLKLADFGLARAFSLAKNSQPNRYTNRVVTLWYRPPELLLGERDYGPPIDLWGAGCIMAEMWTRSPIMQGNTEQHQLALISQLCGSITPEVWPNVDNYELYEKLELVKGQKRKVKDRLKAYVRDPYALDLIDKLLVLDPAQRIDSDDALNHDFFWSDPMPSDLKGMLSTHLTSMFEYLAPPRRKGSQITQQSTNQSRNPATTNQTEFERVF
UniProt O60563: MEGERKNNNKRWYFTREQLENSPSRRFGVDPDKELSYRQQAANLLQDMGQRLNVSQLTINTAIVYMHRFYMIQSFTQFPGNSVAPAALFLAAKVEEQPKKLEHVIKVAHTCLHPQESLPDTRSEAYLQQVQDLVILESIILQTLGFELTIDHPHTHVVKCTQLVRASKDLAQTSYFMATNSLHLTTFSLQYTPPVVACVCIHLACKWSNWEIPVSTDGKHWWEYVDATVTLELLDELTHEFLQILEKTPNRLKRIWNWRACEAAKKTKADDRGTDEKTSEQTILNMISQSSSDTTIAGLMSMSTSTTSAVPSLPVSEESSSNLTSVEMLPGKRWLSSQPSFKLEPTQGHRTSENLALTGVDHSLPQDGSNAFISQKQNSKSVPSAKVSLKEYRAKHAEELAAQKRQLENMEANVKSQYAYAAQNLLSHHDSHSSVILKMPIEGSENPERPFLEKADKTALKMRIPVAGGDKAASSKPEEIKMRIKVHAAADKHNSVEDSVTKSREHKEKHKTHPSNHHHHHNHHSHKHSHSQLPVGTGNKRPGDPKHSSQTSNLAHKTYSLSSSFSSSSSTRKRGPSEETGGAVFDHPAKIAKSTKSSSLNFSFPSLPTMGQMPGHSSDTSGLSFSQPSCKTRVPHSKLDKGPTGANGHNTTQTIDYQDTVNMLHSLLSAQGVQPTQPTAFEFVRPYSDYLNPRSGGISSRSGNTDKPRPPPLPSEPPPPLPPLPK
UniProt O94992: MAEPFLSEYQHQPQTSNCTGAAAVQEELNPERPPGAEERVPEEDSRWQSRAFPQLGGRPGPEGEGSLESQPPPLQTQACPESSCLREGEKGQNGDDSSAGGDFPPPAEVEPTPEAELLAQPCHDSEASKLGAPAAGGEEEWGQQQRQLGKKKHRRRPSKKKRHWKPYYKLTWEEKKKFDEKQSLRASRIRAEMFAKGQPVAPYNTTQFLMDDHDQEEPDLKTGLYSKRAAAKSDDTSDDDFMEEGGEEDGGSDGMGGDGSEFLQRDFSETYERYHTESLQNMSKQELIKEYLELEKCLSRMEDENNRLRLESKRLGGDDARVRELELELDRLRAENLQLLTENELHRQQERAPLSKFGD
UniProt Q7L2J0: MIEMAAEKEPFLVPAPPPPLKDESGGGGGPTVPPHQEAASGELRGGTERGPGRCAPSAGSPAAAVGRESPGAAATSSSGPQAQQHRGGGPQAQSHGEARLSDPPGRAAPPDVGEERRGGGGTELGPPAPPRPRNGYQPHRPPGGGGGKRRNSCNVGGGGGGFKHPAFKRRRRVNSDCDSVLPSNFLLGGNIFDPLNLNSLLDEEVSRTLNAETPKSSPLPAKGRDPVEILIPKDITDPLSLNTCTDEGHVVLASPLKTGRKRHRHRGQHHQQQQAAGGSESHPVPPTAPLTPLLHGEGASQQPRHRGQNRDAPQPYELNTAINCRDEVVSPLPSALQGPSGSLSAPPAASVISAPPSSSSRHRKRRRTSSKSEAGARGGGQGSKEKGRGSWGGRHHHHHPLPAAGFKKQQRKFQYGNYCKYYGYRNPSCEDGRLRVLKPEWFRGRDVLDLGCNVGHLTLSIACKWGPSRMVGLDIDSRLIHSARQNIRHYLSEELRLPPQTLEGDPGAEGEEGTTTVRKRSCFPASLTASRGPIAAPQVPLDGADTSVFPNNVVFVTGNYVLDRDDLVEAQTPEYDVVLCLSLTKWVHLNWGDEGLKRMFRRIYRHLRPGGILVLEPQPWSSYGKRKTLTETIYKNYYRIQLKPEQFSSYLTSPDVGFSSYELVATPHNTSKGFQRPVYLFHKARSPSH

Tests used:
[1] = target: T1, FLAG-HRV-tagged RBM22 (human) (UniProt Q9NW64); assay: co-IP; FLAG immunoprecipitation of FLAG-RBM22 from benzonase-treated lysate of the HepG2 FLAG-RBM22 line; Western blot of endogenous partners (Fig. 5c, 5j)
T1 sequence: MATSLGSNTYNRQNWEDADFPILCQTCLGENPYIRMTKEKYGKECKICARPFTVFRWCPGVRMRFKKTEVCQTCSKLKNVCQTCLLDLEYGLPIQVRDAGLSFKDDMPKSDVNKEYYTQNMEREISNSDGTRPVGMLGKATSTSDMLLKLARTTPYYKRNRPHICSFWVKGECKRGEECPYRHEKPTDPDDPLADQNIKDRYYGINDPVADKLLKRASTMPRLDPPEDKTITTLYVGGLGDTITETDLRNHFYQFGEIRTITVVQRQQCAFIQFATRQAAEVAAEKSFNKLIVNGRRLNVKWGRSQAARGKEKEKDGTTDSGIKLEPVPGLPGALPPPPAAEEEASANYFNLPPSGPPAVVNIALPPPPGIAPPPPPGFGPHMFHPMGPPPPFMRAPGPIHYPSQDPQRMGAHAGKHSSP

[2] = target: 7SK-P-TEFb complex (human (endogenous in HepG2)) (UniProt P50750+O60563+O94992+Q4G0J3+Q7L2J0); assay: co-sedimentation; HepG2 cell lysate on a 10-40% glycerol gradient in NP-40 lysis buffer (50 mM HEPES pH 7.5, 100 mM NaCl), 50,000 rpm for 11 h at 4°C; fractions detected by Western blotting
[3] = target: CDK9 (human (endogenous in HepG2)) (UniProt P50750); assay: co-IP; reciprocal co-IP of endogenous proteins in wild-type HepG2 cells (Fig. 5k); which partner was precipitated is not told
[4] = target: HEXIM1 (human (endogenous in HepG2)) (UniProt O94992); assay: as above
[5] = target: T2, LARP7 (human (endogenous in HepG2)) (UniProt Q4G0J3); assay: as above
T2 sequence: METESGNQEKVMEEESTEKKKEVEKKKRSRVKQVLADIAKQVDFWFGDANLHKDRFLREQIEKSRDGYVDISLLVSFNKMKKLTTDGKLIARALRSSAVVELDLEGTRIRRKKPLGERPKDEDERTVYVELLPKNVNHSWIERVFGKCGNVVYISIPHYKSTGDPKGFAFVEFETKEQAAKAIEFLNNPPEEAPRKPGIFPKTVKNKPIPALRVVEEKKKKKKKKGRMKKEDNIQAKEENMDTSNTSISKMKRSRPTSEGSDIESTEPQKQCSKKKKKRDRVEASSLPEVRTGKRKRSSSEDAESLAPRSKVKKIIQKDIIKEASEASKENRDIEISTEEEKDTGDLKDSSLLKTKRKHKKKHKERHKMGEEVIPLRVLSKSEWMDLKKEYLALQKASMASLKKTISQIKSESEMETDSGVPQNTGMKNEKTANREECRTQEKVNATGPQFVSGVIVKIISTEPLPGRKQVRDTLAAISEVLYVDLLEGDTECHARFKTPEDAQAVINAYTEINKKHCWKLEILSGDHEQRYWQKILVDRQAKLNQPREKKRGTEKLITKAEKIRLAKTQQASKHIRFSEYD

[6] = target: CDK9 (human (endogenous in HepG2)) (UniProt P50750); assay: co-IP; endogenous proteins in mAID-RBM22 HepG2 cells treated with DMSO or 5-Ph-IAA (acute depletion of RBM22); Western blot
[7] = target: T1, FLAG-HRV-tagged RBM22 (human); assay: co-IP; FLAG immunoprecipitation of FLAG-RBM22 from benzonase-treated lysate of the HepG2 FLAG-RBM22 line; Western blot of endogenous partners (Fig. 5c, 5j); remark: listed apart in the source

Molecule: RBM22 (endogenous) (from UniProt Q9NW64 1-420)
binding [2]: binds | binding [3]: binds | binding [4]: binds | binding [5]: binds

B1: LARP7 (protein, UniProt Q4G0J3 1-582)
chain: T2 sequence
binding [7]: binds

Continued, values first:

binding [1]: binds
Molecule: CDK9 (from UniProt P50750 1-372) (enzyme)

binding [6]: binds | binding [1]: binds
Molecule: HEXIM1 (from UniProt O94992 1-359)
